In patent US5198542A (Takeda Chemical Industries, Inc., priority 1989, dated 1993):

Assay: general procedure: Boc solid-phase peptide synthesis; p-methyl BHA resin (Applied Biosystems Inc.); HOBt/DCC
Conditions: whole synthesis, scale 0.50 g protected peptide resin

PACAP27 NH2
isolated mass (run 1): 129 mg | isolated mass (run 2): 17.2 mg
